Patent US20020037516
The comparison behind a weaker result is the experiment's own reference, which may not be listed here.

Target: TSR thiostrepton resistance methyltransferase (tsr) (Streptomyces azureus) (UniProt P18644)
Test: binding assay
Conditions: weak methylation substrate; purified recombinant protein; variant of LHL 29-mer of E. coli mGAR

## GGGCUUAGAAGCAGCCU [LHL 17-mer of E. coli mGAR]
  binding result: binds more weakly
